Values from PubChem BioAssay AID602196 (INSERM, 2012).
Assay: 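Knock-downs that protect lung cancer cells from cisplatin or sensitise them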. Cells: human A549 lung cancer cells. Reagent: siRNA pair against human genes. Time to read-out: 48 h transfection before cisplatin; time from cisplatin to read-out not stated. Treatment: cisplatin at a dose killing half of control-siRNA cells; exact dose and duration not given. Measured: 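Shift in cisplatin death relative to control siRNA, from -50 (all cells die) to +50 (no cells die); siRNAs harmful on their own scored 0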. Scale: two-siRNA summed score (-2 to +2): higher = both siRNAs protect from cisplatin killing; -2 means both sensitise; mean protection from cisplatin (shift in death) and protection from cisplatin (shift in death), siRNA C and protection from cisplatin (shift in death), siRNA D: higher = protection from cisplatin killing. Call rule: 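Each siRNA scores 0 if harmful alone by LDH or WST-1, otherwise +1 if it reduces and -1 if it increases cisplatin killing; a gene is active when both siRNAs agree (sum +2 or -2)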. Meaning of the calls: active = both siRNAs shift cisplatin killing the same way; inactive = no consistent shift, or siRNA harmful alone.
The deposit covers about 23,000 reagents; below is an unselected part. 455 of all reagents (2%) count as active. 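Active includes both protection and sensitisation; some change values fall well beyond the stated -50 to +50 range.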 The numbers tell different reagents against one gene apart. Not stated in the record: the amount of reagent.

| Target gene | reagent no. | two-siRNA summed score (-2 to +2) | mean protection from cisplatin (shift in death) (%) | protection from cisplatin (shift in death), siRNA C (%) | protection from cisplatin (shift in death), siRNA D (%) | call |
| --- | --- | --- | --- | --- | --- | --- |
| DDX19B | 1 | 0 | 10.6 | 8.9 | 12.3 | inactive |
| DDX19B | 2 | 0 | 32.9 | 58.3 | 7.6 | inactive |
| TC2N | 1 | 0 | 6.1 | 4.2 | 7.9 | inactive |
| VN1R3 | 1 | 0 | 1.9 | 2.9 | 0.9 | inactive |
| RNF40 | 1 | 0 | 7.4 | -11.4 | 26.2 | inactive |
| CRYGS | 1 | -1 | -13.9 | -10.8 | -16.9 | inactive |
| LOC389757 | 1 | 0 | 4.7 | -2.1 | 11.6 | inactive |
| DCT | 1 | -1 | -6.1 | -3.3 | -8.9 | inactive |
| COX17 | 1 | 0 | 0.5 | 0.4 | 0.6 | inactive |
| ADAMTSL1 | 1 | 1 | 6.9 | 8 | 5.9 | inactive |
| ADAMTSL1 | 2 | 1 | 15.7 | 16.5 | 15 | inactive |
| ZBTB32 | 1 | -1 | -2.6 | 12 | -17.2 | inactive |
| ZGRF1 | 1 | 0 | 3.4 | 1.4 | 5.3 | inactive |
| ZGRF1 | 2 | 0 | 9.4 | 11.7 | 7.2 | inactive |
| LOC342934 | 1 | 0 | 30.4 | 7.4 | 53.4 | inactive |
| LOC400298 | 1 | 1 | 15.5 | 17 | 13.9 | inactive |
| LOC391013 | 1 | 0 | 15.8 | 5.6 | 26 | inactive |
| EPHA10 | 1 | -1 | -0.4 | 13.6 | -14.4 | inactive |
| BACH1 | 1 | 0 | 14.6 | 17.2 | 11.9 | inactive |
| LOC399937 | 1 | 0 | 5.6 | 5.5 | 5.6 | inactive |
| H3C1 | 1 | 0 | 9 | 10.1 | 7.9 | inactive |
| EED | 1 | 0 | -0.4 | -7.7 | 6.9 | inactive |
| SNX17 | 1 | -1 | -13.6 | -6 | -21.1 | inactive |

An excerpt from above, showing only “protection from cisplatin (shift in death), siRNA D (%)”:
DDX19B #1 = 12.3
DDX19B #2 = 7.6
TC2N = 7.9
